# Results are given in words; binding and its absence hold for the method and conditions named. In cells and extracts the contact can be indirect. Some entries that bind do so weakly or less than the wild type.
# T1: PPP1R3B (human (endogenous in FaDu or 5-8F cells)) (UniProt Q86XI6)
# T1 sequence: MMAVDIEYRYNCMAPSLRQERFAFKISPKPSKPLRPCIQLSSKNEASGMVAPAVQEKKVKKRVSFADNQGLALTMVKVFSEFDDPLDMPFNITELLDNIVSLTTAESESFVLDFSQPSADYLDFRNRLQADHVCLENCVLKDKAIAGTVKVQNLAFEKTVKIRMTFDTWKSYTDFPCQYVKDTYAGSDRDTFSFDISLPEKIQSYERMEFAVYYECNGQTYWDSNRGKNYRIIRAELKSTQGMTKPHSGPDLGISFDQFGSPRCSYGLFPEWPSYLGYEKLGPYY
# B1: PHKG2 (enzyme, UniProt P15735 1-406)
# chain: MTLDVGPEDELPDWAAAKEFYQKYDPKDVIGRGVSSVVRRCVHRATGHEFAVKIMEVTAERLSPEQLEEVREATRRETHILRQVAGHPHIITLIDSYESSSFMFLVFDLMRKGELFDYLTEKVALSEKETRSIMRSLLEAVSFLHANNIVHRDLKPENILLDDNMQIRLSDFGFSCHLEPGEKLRELCGTPGYLAPEILKCSMDETHPGYGKEVDLWACGVILFTLLAGSPPFWHRRQILMLRMIMEGQYQFSSPEWDDRSSTVKDLISRLLQVDPEARLTAEQALQHPFFERCEGSQPWNLTPRQRFRVAVWTVLAAGRVALSTHRVRPLTKNALLRDPYALRSVRHLIDNCAFRLYGHWVKKGEQQNRAALFQHRPPGPFPIMGPEEEGDSAAITEDEAVLVLG
# Molecular target: T1, PPP1R3B (human (endogenous in FaDu or 5-8F cells))
# Experiment: co-IP; cell lysates incubated with AminoLink resin coupled to antibodies against PPP1R3B, PP1C or PHKG2; eluates analysed by Western blotting; cells with different PHKG2 expression levels
binder,measurement,value
B1,binding,binds

# Source: publication PMC12398534
